Primary screen of a compound library

Chains of the proteins cited; added tags and fusions are not shown.
UniProt P9WNZ1, whole entry: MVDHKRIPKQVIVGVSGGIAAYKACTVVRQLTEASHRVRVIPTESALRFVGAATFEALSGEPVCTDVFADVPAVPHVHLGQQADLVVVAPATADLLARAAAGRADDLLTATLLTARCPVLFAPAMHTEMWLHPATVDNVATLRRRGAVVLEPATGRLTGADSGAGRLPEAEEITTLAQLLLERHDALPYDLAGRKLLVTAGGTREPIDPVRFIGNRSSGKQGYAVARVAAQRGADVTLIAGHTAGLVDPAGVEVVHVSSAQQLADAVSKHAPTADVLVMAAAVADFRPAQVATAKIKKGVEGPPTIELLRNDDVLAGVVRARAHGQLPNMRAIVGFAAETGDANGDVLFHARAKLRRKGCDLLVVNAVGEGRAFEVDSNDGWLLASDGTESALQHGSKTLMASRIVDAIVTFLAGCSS

Results are given as percent effect. How 0% and 100% were set is not recorded. Most values in the screen are low, and negative values occur. Compounds were drawn at random from those tested, without regard to their results.

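Coenzyme A biosynthesis protein CoaBC, Mycobacterium tuberculosis (UniProt P9WNZ1). Enzyme assay of CoaBC with a phosphate dye (Biomol Green) read at 650 nm. Concentration: 30 µM. Direction is inferred from only a few compounds that gave an IC50; most scored high, so higher reads as stronger inhibition. Most strong results did not repeat in a second test. About 67,000 compounds were tested under these conditions; 0.06% (about 40) showed 50% or more at least once.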

For Cn1cnc(S(=O)(=O)N2CCO[C@H]3[C@@H](OCC4CC4)CC[C@@H]32)c1 the result was -1.018%. With Cc1ccc(CNC(=O)CN2CCOC(Cn3cncn3)C2)s1 (stereo not given) the screen gave 1.044%. Result for O=C(c1ccc[nH]1)N1Cc2nccn2CC(COc2cccnc2)C1 (stereo not given) was -9.988%. CC(C)c1n[nH]c(C2CN(C(=O)c3cc(Cl)c[nH]3)CCO2)n1 (stereo not given) gave -6.128%. With Cc1cc(NC(N)=O)ccc1C(=O)N(C)C the screen gave 9.287%.

With Cc1cc(C)n(CC2CCCN2C(=O)c2ccc3[nH]nnc3c2)n1 (stereo not given) the screen gave 3.198%. Result for c1nc(N2CCN(Cc3nnnn3C3CC3)CC2)c2sccc2n1 was -4.925%. For Cc1cc(C)n(C2CN(CC(O)c3ccc(C(F)(F)F)cc3)C2)n1 (stereo not given) the result was -3.864%. COCC(C)NC(=O)c1cn(C(C)C)cc2c(=O)[nH]nc1-2 (stereo not given) gave -0.2421%. COCC(=O)N1CCCC1c1nc(C)c2c(n1)N(CC(C)C)C(=O)CC2 (stereo not given) read 7.039%.

Result for Cn1nccc1-c1ncc(-c2cc(C(=O)O)n(CC3CC3)c2)cn1 was -1.951%. With COc1ccnc(N2CCCN(Cc3ncc(C(C)C)o3)CC2)n1 the screen gave 6.962%. Result for CN1CCN(Cc2ccco2)Cc2cccnc21 was 10.78%. With Cc1nc(CSCCC(=O)NCc2ccncc2)cs1 the screen gave 7.456%. With Cc1cnn(CC2CCCN2C(=O)c2cn(-c3ccccc3)nc2C)c1 (stereo not given) the screen gave 2.966%.

With c1ccc(NC[C@@H]2CCC[C@@H]3CN(c4ncccn4)C[C@@H]32)nc1 the screen gave 5.665%. CN(Cc1nnc2n1CCC2)C(=O)c1ccc(=O)n(C)n1 gave 4.727%. CCNC(=O)C1CCCN(c2ccc3ccc(F)cc3n2)C1 (stereo not given) read 7.524%. With O=c1[nH]cnc2[nH]c(N3CCCCC3)nc12 the screen gave -3.803%. CCn1cncc1-c1nc2c([nH]1)CC(C)(C)CNC2=O gave -3.484%.

Cc1cc(C(=O)N2CCc3nc(N4CCCC4)nc(C)c3CC2)c(C)o1 gave 1.361%. O=C(NCCc1csc(N2CCCC2)n1)N(C1CCCC1)C1CC1 read -0.4464%. With Cc1ccc(N2CCCN(C(=O)c3cn(C)c4ccccc34)CC2)nn1 the screen gave 1.373%. Result for CC(=O)N1CCC2(CCN(C(=O)c3cccc(C(F)(F)F)c3)CC2)C1 was -10.5%. With CC(NC(=O)NCC(C)(C)O)c1ccc(-c2ccncc2)cc1 (stereo not given) the screen gave 1.984%.

COC(=O)c1cccn1C1CCN(CCN2C(=O)CCC2=O)CC1 gave 1.609%. For COCCc1noc(CN2CCc3nn(C(C)C)c(=O)cc3C2)n1 the result was 2.17%. CCc1ncc(CN2CCc3nc4sc(C)cc4c(=O)n3CC2)cn1 read -2.663%. With Cc1noc(C)c1CCC(=O)N[C@@H]1CC[C@@H](Oc2cccnc2)[C@@H]1O the screen gave 3.8%. With CN(C)CC1(O)CCCN(C(=O)CCn2cc(Cl)cn2)C1 (stereo not given) the screen gave 0.5964%.

With COc1cnc(CN2CCN(CC(C)C)C(=O)C2C)cc1O (stereo not given) the screen gave -0.2457%. For COc1ccnc(N2CCN(Cc3ncc(C(C)(C)C)o3)CC2)n1 the result was 3.481%. For c1cncc(OC[C@]23COC[C@H]2CN(C2CCOCC2)C3)c1 the result was -1.576%. With Cc1ccc(C)c2c(O)cc(CNCCNC(=O)C(C)C)nc12 the screen gave 0.2457%. Cc1nc(COCc2cnc3n2CCN(C(=O)C2CC2)C3C)cs1 (stereo not given) gave 2.581%.

C[C@@H]1CN(C(=O)[C@H]2CCCO2)C[C@]12CCN(c1ccsc1)C2=O gave 3%. Result for CC(C)c1cc(COCCCC(=O)O)no1 was -0.3681%. Cc1cc(CN2CCC(C3CCN(Cc4cccnc4)CC3)C2)[nH]n1 (stereo not given) read 6.258%. Result for CCC(O)CN1CCN(C(=O)c2cccc3c2OCC(=O)N3)CC1 (stereo not given) was -20.05%. Cc1oc(C(=O)O)cc1S(=O)(=O)Nc1cc(Br)ccc1F read 1.935%.

Cc1cc(C(=O)NCCc2cn3nc(C)sc3n2)c(C)o1 read 6.407%. CC(C)NC(=O)CCNC(=O)Nc1cnn(-c2ccccc2Cl)c1 read 3.165%. With O=C(NC1CCCCC1)c1nnc2ccc(N3CCOCC3)cc2n1 the screen gave 1.386%. CCc1nnc2n1CCN(Cc1nc(-c3ccoc3)no1)C2 read -3.109%. For c1ccc2c(CC3CN(Cc4nccs4)CCO3)cccc2c1 (stereo not given) the result was 6.41%.

CCN(CC)CC(=O)N1CCCCC1c1nc(C)cs1 (stereo not given) read -10.99%. Result for CC/C=C(/C)C(=O)NS(=O)(=O)c1ccc(C#N)c(C(F)(F)F)c1 was 4.962%. For CN(C)C(=O)CO[C@H]1CO[C@@]2(CCN(Cc3ccoc3)C2)C1 the result was -0.7389%. With CC(=O)NCCc1ccc(S(=O)(=O)Nc2ccc(C)c(F)c2)s1 the screen gave 1.901%. Result for CCN1CCN(c2ccc(CNC(=O)Cc3c(C)noc3C)cn2)CC1 was -0.2611%.

CN1CCN(S(=O)(=O)c2cccc(S(=O)(=O)C3CCS(=O)(=O)C3)c2)CC1 (stereo not given) read -0.3645%. COCC1CN(c2ccc(C)nn2)Cc2cnn(CC3CCOCC3)c21 (stereo not given) gave -0.9756%. Cc1cnn(CC2CCCN2C(=O)c2c(C)noc2C)c1 (stereo not given) gave 5.867%. CCC(C)c1cc(C(=O)N(CC(=O)NC)c2cccc(F)c2)on1 (stereo not given) gave -10.61%. O=C(COc1ccccc1F)NCCC(O)c1ccco1 (stereo not given) read -1.057%.

COCC(=O)N1CCCn2c(CN3CCOCC3)nnc2C1 gave 2.746%. CS(=O)(=O)N1CCC(OCCCc2ccccc2)C1 (stereo not given) read -1.463%. NC(=O)NCC(=O)N1CCCC(c2nccn2CC2CCC2)C1 (stereo not given) read 4.177%.

Some entries from above, unchanged:

{"compound": "CCN(CC)CC(=O)N1CCCCC1c1nc(C)cs1", "stereo": "stereo not given", "percent effect": -10.99}
{"compound": "CCC(O)CN1CCN(C(=O)c2cccc3c2OCC(=O)N3)CC1", "stereo": "stereo not given", "percent effect": -20.05}
{"compound": "c1nc(N2CCN(Cc3nnnn3C3CC3)CC2)c2sccc2n1", "percent effect": -4.925}
{"compound": "CN1CCN(S(=O)(=O)c2cccc(S(=O)(=O)C3CCS(=O)(=O)C3)c2)CC1", "stereo": "stereo not given", "percent effect": -0.3645}
{"compound": "COCC1CN(c2ccc(C)nn2)Cc2cnn(CC3CCOCC3)c21", "stereo": "stereo not given", "percent effect": -0.9756}
{"compound": "COC(=O)c1cccn1C1CCN(CCN2C(=O)CCC2=O)CC1", "percent effect": 1.609}
{"compound": "NC(=O)NCC(=O)N1CCCC(c2nccn2CC2CCC2)C1", "stereo": "stereo not given", "percent effect": 4.177}
{"compound": "Cc1cc(C(=O)NCCc2cn3nc(C)sc3n2)c(C)o1", "percent effect": 6.407}

From ChEMBL document CHEMBL3988442, “University of Dundee, Small-Polar-MMV Screening Library” (2021).